This is an account of results in the supplement of paper PMC12819154, “High-throughput peptide-centric local stability assay extends protein–ligand identification to membrane proteins, tissues and bacteria” (Nature Structural & Molecular Biology, 2025).

By UniProt entry, the sequences of proteins in these tests, tags left out. Where a name states a change or a piece, a line headed by the entry shows the natural chain unless it says otherwise.
UniProt Q9BS16: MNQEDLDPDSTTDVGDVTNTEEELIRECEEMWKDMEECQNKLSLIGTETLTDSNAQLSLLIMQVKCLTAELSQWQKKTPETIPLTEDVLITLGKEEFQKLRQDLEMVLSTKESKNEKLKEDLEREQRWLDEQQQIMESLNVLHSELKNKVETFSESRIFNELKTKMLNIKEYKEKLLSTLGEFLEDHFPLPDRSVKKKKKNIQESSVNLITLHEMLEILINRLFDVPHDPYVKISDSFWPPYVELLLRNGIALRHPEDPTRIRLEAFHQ
UniProt Q9BSU3: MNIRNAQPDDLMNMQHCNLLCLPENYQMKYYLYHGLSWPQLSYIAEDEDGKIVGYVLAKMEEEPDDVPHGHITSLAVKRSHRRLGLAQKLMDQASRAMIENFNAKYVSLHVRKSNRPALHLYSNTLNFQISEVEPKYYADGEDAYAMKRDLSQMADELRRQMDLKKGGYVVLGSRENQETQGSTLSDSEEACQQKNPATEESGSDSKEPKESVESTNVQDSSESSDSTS
UniProt Q99832: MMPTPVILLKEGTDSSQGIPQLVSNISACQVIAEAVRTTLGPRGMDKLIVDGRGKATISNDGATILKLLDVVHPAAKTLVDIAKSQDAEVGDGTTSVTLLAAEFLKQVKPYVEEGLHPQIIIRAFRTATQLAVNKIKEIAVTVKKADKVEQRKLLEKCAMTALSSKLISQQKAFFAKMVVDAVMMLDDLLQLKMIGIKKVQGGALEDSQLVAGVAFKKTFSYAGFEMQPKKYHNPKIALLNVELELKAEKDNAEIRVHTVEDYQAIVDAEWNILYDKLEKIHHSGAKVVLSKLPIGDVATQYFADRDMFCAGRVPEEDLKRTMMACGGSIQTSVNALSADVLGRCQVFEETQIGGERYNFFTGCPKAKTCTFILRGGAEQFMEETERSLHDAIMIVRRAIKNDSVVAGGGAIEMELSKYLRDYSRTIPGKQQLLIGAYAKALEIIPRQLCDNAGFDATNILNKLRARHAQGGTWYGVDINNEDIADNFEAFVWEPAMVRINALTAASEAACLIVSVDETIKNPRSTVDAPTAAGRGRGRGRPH
UniProt Q9BQA1, whole entry: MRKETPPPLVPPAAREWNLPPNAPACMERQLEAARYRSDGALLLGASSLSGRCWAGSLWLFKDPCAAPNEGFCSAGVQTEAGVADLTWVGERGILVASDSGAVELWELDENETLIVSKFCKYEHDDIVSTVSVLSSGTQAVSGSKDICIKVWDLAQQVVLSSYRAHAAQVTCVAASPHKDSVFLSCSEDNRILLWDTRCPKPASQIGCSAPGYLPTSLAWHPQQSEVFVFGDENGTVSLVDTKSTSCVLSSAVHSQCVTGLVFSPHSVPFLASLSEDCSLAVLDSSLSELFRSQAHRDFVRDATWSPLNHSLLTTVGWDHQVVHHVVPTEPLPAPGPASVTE
UniProt Q9BUV8: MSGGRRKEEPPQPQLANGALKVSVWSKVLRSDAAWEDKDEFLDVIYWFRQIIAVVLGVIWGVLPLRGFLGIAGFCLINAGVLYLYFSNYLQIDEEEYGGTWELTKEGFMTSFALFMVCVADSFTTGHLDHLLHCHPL
UniProt Q9BRR8: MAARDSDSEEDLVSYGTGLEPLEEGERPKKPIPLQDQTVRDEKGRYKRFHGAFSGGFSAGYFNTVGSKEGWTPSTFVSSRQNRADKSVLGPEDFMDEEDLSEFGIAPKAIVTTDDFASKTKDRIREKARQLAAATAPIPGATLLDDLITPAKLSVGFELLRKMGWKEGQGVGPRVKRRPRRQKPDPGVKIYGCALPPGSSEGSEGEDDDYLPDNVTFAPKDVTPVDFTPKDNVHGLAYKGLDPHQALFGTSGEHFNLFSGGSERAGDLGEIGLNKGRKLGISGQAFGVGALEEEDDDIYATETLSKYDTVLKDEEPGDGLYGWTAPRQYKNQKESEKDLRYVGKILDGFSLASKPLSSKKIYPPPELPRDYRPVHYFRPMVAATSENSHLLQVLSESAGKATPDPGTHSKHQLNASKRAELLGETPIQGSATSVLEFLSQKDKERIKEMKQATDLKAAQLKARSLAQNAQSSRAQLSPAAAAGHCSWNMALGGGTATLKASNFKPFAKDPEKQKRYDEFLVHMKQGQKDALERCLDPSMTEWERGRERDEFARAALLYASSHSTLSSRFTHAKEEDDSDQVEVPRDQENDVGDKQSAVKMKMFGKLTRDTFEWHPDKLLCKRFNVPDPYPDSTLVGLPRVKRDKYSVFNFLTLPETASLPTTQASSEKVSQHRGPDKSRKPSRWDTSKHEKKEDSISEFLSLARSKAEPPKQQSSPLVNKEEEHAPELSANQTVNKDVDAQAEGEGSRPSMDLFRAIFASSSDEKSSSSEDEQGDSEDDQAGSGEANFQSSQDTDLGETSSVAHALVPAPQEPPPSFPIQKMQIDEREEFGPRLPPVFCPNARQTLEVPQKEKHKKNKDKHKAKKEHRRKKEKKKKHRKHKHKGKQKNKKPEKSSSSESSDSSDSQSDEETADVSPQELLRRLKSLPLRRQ
UniProt Q9BTE0: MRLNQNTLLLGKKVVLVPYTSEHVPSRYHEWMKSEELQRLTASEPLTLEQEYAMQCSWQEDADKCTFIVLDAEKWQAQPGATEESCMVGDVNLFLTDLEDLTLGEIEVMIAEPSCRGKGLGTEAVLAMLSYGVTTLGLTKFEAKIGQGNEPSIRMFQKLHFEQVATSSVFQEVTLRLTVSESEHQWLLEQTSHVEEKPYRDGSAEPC
UniProt Q9BT09: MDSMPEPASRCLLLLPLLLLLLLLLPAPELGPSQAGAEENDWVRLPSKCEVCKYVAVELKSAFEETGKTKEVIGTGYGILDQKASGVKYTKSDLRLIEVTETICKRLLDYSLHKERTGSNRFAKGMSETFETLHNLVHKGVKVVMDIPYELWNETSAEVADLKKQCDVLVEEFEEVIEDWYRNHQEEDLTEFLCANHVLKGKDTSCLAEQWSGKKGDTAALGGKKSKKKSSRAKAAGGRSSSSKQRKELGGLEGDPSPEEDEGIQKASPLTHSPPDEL
UniProt Q9BRV8: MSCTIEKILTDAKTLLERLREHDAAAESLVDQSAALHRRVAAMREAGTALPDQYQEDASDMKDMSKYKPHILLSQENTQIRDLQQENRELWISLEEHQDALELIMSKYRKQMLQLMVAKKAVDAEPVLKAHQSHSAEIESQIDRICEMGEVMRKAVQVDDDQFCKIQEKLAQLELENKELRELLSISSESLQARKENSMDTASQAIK
UniProt Q9BVT8: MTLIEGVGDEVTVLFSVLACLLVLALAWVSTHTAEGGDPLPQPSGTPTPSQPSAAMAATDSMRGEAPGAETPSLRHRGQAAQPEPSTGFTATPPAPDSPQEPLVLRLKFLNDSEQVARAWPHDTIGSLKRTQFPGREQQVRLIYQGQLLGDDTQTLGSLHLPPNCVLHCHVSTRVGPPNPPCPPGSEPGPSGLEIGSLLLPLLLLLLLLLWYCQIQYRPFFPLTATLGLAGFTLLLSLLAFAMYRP
UniProt Q9BSK4: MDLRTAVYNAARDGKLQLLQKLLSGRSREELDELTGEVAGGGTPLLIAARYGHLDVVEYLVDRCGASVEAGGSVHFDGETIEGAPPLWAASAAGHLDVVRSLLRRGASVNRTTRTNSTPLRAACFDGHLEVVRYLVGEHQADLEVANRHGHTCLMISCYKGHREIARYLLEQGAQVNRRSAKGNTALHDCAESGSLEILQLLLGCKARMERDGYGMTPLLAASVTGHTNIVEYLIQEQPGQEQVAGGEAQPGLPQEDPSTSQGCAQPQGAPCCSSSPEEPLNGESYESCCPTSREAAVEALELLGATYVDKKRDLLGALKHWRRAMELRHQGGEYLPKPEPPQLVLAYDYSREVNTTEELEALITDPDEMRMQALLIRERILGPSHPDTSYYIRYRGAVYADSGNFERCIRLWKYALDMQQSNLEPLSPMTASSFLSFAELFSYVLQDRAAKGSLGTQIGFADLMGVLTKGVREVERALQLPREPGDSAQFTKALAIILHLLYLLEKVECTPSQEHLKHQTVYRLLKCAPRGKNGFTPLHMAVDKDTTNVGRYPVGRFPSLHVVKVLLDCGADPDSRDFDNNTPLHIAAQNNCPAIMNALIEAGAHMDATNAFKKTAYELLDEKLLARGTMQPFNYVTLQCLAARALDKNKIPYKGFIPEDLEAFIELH
UniProt Q99627: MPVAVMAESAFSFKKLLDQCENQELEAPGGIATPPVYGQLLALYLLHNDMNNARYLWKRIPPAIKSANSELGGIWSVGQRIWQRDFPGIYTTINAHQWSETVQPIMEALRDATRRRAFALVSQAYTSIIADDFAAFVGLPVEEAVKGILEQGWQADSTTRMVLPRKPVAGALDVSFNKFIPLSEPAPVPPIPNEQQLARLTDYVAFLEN
UniProt Q9BTY7: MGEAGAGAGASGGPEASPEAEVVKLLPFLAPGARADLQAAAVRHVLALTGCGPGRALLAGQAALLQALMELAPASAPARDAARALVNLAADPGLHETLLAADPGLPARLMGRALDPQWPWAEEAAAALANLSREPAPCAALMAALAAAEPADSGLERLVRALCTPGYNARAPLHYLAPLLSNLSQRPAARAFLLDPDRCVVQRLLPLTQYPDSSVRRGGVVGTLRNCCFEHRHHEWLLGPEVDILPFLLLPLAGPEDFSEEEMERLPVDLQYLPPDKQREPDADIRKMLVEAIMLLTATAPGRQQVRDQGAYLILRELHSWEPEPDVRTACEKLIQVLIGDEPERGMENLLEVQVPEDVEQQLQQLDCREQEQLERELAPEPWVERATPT
UniProt Q9BQ87: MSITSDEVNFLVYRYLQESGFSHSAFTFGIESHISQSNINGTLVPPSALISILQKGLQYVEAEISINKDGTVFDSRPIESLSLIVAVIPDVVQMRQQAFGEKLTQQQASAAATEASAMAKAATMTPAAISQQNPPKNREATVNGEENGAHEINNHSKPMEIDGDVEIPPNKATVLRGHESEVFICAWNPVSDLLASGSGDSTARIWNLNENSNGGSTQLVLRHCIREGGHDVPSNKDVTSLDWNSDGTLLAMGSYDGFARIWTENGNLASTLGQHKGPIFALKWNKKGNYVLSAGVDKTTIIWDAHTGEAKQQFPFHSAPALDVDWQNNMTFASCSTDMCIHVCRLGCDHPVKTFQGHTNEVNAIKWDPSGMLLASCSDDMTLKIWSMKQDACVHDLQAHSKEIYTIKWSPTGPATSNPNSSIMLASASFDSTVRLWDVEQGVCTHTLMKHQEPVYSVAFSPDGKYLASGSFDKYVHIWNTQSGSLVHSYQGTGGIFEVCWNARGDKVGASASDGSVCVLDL
UniProt Q9BUL8: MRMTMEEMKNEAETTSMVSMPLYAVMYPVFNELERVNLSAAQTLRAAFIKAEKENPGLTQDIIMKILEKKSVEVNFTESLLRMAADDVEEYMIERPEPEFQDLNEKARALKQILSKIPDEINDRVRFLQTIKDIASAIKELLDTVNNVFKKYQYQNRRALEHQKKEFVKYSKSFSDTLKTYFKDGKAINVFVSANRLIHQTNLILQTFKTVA
UniProt Q9BQC3: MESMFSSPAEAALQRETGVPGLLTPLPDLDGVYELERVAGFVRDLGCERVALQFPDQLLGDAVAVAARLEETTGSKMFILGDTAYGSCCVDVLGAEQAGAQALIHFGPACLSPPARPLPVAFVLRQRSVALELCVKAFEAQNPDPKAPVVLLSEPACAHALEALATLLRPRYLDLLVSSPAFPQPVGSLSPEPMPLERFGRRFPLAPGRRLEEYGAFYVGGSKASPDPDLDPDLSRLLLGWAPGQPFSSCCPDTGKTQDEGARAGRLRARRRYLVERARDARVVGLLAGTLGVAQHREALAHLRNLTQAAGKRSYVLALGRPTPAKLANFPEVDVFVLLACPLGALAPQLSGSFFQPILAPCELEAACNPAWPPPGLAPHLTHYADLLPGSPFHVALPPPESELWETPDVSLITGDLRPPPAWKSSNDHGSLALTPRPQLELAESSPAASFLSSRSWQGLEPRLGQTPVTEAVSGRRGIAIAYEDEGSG
UniProt Q99615: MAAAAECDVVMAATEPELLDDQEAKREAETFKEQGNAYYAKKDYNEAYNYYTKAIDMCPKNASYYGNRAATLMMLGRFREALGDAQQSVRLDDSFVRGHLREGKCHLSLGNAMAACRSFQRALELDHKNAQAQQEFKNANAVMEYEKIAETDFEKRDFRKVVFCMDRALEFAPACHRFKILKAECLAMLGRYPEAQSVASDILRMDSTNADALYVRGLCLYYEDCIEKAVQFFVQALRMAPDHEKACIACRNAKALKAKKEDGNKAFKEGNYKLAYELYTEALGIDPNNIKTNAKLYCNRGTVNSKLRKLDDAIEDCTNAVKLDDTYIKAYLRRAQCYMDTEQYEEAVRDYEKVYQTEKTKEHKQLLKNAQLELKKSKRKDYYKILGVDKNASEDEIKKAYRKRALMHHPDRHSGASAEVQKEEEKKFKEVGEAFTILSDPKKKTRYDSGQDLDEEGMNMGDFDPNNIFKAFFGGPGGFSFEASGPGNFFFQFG
UniProt Q9BVM2: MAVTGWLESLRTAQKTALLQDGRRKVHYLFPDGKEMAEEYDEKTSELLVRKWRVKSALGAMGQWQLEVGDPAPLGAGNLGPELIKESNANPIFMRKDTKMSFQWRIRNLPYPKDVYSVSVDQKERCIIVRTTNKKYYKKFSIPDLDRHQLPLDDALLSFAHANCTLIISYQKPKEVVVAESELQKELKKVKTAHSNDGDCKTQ

Some of the results follow. Most values lie at the level of the controls, where differences are scatter.

Compound in this test: CN[C@@H]1C[C@H]2O[C@@](C)([C@@H]1OC)n1c3ccccc3c3c4c(c5c6ccccc6n2c5c31)C(=O)NC4 [staurosporine]
The test can be described thus: log2 fold change of tryptic peptide abundance, ligand vs vehicle (limited proteolysis) (log2 ratio); higher = more trypsin-susceptible (destabilized). The conditions noted are these: ligand concentration: 20 uM; sample: K562 cleared lysate; digestion: 4 min, 22 C (HT-PELSA RT4min, Orbitrap Astral).
On to “UniProt Q9BSI4 (peptide sequence: AKPGTHLPQGPSSR, peptide start residue: 234)”, for which the log2 fold change is -0.298. Then “CENPK (peptide sequence: LFDVPHDPYVK, peptide start residue: 223) (UniProt Q9BS16)”, with 0.515; and “NAA11 (peptide sequence: DLSQMADELR, peptide start residue: 150) (UniProt Q9BSU3)”, with -0.368; and “UniProt Q9BSJ8 (peptide sequence: IHVLEAQDLIAKDRFLGGLVK, peptide start residue: 651)”, with 0.764. Then “CCT7 (peptide sequence: KVQGGALEDSQLVAGVAFK, peptide start residue: 199) (UniProt Q99832)”, with -0.289; and “ATXN2 (peptide sequence: STSHTSDFNPNSGSDQR, peptide start residue: 528) (UniProt Q99700)”, with -0.166; and “WDR77 (peptide sequence: MRKETPPPLVPPAAR, peptide start residue: 1) (UniProt Q9BQA1)”, with 0.787. Then “UniProt Q9BUV8 (peptide sequence: KEEPPQPQLANGALK, peptide start residue: 7)”, with 0.333. On to “DIDO1 (peptide sequence: ERDWDRPR, peptide start residue: 2126) (UniProt Q9BTC0)”, for which the log2 fold change amounted to 0.95. Then “MACROD1 (peptide sequence: EWLEQHKDKVDR, peptide start residue: 289) (UniProt Q9BQ69)”, with 0.162; and “DDX50 (peptide sequence: IKDHLQSGR, peptide start residue: 270) (UniProt Q9BQ39)”, with 0.634. Then “GPATCH1 (peptide sequence: DNVHGLAYK, peptide start residue: 231) (UniProt Q9BRR8)”, with 0.556; and “UniProt Q9BTE0 (peptide sequence: LNQNTLLLGK, peptide start residue: 3)”, with -0.161. As for “CNPY3 (peptide sequence: SAFEETGKTK, peptide start residue: 61) (UniProt Q9BT09)”, the log2 fold change was -0.59. Then “SIKE1 (peptide sequence: KAVQVDDDQFCKIQEK, peptide start residue: 154) (UniProt Q9BRV8)”, with -0.712; and “COPS4 (peptide sequence: IASQMITEGR, peptide start residue: 338) (UniProt Q9BT78)”, with 0.32. Consider “TMUB1 (peptide sequence: FLNDSEQVAR, peptide start residue: 109) (UniProt Q9BVT8)”, for which the log2 fold change was -0.0203. With “MECR (peptide sequence: SLGAEHVITEEELR, peptide start residue: 230) (UniProt Q9BV79)” the figure was -0.0641. Then “LIMD2 (peptide sequence: GNYDEGFGR, peptide start residue: 100) (UniProt Q9BT23)”, with -0.106. For “FEM1A (peptide sequence: TAYELLDEK, peptide start residue: 616) (UniProt Q9BSK4)”, the log2 fold change is -0.247. Then “COPS8 (peptide sequence: KPVAGALDVSFNK, peptide start residue: 166) (UniProt Q99627)”, with -0.0333; and “NOL10 (peptide sequence: QKIEETR, peptide start residue: 431) (UniProt Q9BSC4)”, with 0.348. As for “UniProt Q9BQE4 (peptide sequence: AAAAVEPDVVVKR, peptide start residue: 66)”, the log2 fold change is -0.299.

Take “UniProt Q9BTY7 (peptide sequence: ALVNLAADPGLHETLLAADPGLPAR, peptide start residue: 84)”: the log2 fold change turned out to be 0.155.

As to “NUDT16L1 (peptide sequence: LTEADYLSSHLTEGPHR, peptide start residue: 91) (UniProt Q9BRJ7)”, the log2 fold change was -1.13. With “RSRP1 (peptide sequence: TVYPEEHSR, peptide start residue: 145) (UniProt Q9BUV0)” the figure was -0.412; with “UniProt Q9BQ87 (peptide sequence: YLASGSFDK, peptide start residue: 456)”, -0.263. Then “DCTN5 (peptide sequence: MELGELLYNK, peptide start residue: 1) (UniProt Q9BTE1)”, with -0.222. Then “TCF25 (peptide sequence: SFYLALYK, peptide start residue: 342) (UniProt Q9BQ70)”, with 0.29; and “PDCD10 (peptide sequence: MTMEEMK, peptide start residue: 3) (UniProt Q9BUL8)”, with 0.298; and “TARS2 (peptide sequence: GSELPVLER, peptide start residue: 175) (UniProt Q9BW92)”, with 0.127.

For “DPH2 (peptide sequence: LGQTPVTEAVSGR, peptide start residue: 464) (UniProt Q9BQC3)”, the log2 fold change is 0.108. In the case of “MPHOSPH8 (peptide sequence: EVLLEFR, peptide start residue: 101) (UniProt Q99549)”, the log2 fold change was -0.124. Then “DNAJC7 (peptide sequence: ALMHHPDR, peptide start residue: 405) (UniProt Q99615)”, with 0.243; and “DPCD (peptide sequence: EVVVAESELQKELK, peptide start residue: 175) (UniProt Q9BVM2)”, with 0.58. Then “KATNAL1 (peptide sequence: IYIPLPTAK, peptide start residue: 376) (UniProt Q9BW62)”, with 0.139. Then “DNAJC2 (peptide sequence: WEVIANYMNIHSSSGVKR, peptide start residue: 477) (UniProt Q99543)”, with 0.893.
